Data as given in PubChem BioAssay AID652243 (Drosophila RNAi Screening Center, 2013).
The screen tested about 24,000 reagents; below is an unselected part of those with a known target gene and a result. Of all reagents, 246 (1%) are marked active. 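Plates not normalised; calls are printed but the firefly/Renilla ratio behind them is not deposited; fold cut for lowering reported inconsistently.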 Raw values vary from plate to plate and are shown uncorrected. Reagents against one gene are numbered here. Names joined by + are all predicted targets of the reagent. The record does not give: the amount of reagent.

Screen: 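Fly regulators of androgen-dependent reporter output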 (primary screen)
System: Drosophila S2R+ cells
Reagents: long dsRNA against Drosophila genes
Timing: 72 h (48 h, then 24 h hormone)
Treatment: synthetic androgen R1881 at 10 nM for 24 h
Measured: 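Per-well raw luminescence of the androgen-driven firefly reporter and of the Renilla control, two replicates each, without normalisation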
Reading the numbers: firefly reporter light: higher = more light from androgen-responsive reporter; Renilla control light: higher = more constitutive control signal (cell number, transfection)
Call rule: 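Across duplicate plates, a knock-down whose log firefly/Renilla ratio shifted a set fold down or up from the GFP/LacZ control mean was a hit; the downward cut appears as both 1.5 and 3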
Calls: active = hit: reporter lowered or raised; inactive = no hit

| target | reagent no. | firefly reporter light, replicate 1 | firefly reporter light, replicate 2 | Renilla control light, replicate 1 | Renilla control light, replicate 2 | activity call |
| --- | --- | --- | --- | --- | --- | --- |
| CG9737 (GeneID 43600) | 1 | 2.71e5 | 2.86e5 | 3.02e6 | 3.40e6 | inactive |
| CG17658 (GeneID 37793) | 1 | 1.74e5 | 1.65e5 | 1.18e6 | 1.22e6 | inactive |
| CG10638 (GeneID 39424) | 1 | 1.78e5 | 1.24e5 | 1.79e6 | 1.57e6 | inactive |
| CG10638 (GeneID 39424) | 2 | 6.19e5 | 5.46e5 | 1.38e6 | 1.56e6 | inactive |
| CG33281 (GeneID 2768938) | 1 | 91742 | 73179 | 7.07e5 | 5.55e5 | inactive |
| CG40006 (GeneID 3355123) | 1 | 1.86e5 | 2.67e5 | 3.69e5 | 4.35e5 | inactive |
| CG40006 (GeneID 3355123) | 2 | 1.84e5 | 1.49e5 | 5.08e5 | 5.79e5 | inactive |
| CG40006 (GeneID 3355123) | 3 | 2.06e5 | 2.42e5 | 5.46e5 | 7.86e5 | inactive |
| CG40006 (GeneID 3355123) | 4 | 1.80e5 | 2.43e5 | 7.13e5 | 7.43e5 | inactive |
| mfrn (GeneID 43353) | 1 | 2.04e5 | 1.40e5 | 2.28e6 | 2.34e6 | inactive |
| trk (GeneID 34376) | 1 | 99156 | 1.25e5 | 8.59e5 | 9.24e5 | inactive |
| Rpt6 (GeneID 33105) | 1 | 88981 | 1.06e5 | 7.61e5 | 8.79e5 | inactive |
| Rpt6 (GeneID 33105) | 2 | 7.06e5 | 5.39e5 | 1.44e6 | 1.13e6 | inactive |
| CG7173 (GeneID 40392) | 1 | 9.57e5 | 1.08e6 | 1.37e6 | 1.39e6 | inactive |
| CG7173 (GeneID 40392) | 2 | 3.31e5 | 5.76e5 | 5.34e5 | 5.34e5 | inactive |
| CG33307 (GeneID 2768914) | 1 | 2.51e5 | 3.99e5 | 3.19e5 | 5.35e5 | inactive |
| mGluR (GeneID 43838) | 1 | 1.34e5 | 2.36e5 | 2.87e6 | 2.29e6 | inactive |
| wac (GeneID 38044) | 1 | 64137 | 1.52e5 | 8.18e5 | 1.91e6 | inactive |
| wac (GeneID 38044) | 2 | 5.06e5 | 3.89e5 | 1.47e6 | 1.15e6 | inactive |
| CR33317 (GeneID 8674083) | 1 | 1.70e5 | 1.89e5 | 1.53e6 | 2.10e6 | inactive |
| CG2246 (GeneID 43637) | 1 | 1.38e5 | 1.12e5 | 1.15e6 | 7.76e5 | inactive |
| CG2246 (GeneID 43637) | 2 | – | – | – | – | inactive |
| CG2246 (GeneID 43637) | 3 | – | – | – | – | inactive |

Reformatted: entries from further up.
target,reagent no.,"firefly reporter light, replicate 1","firefly reporter light, replicate 2","Renilla control light, replicate 1","Renilla control light, replicate 2",activity call
mGluR (GeneID 43838),1,1.34e5,2.36e5,2.87e6,2.29e6,inactive
wac (GeneID 38044),1,64137,1.52e5,8.18e5,1.91e6,inactive
wac (GeneID 38044),2,5.06e5,3.89e5,1.47e6,1.15e6,inactive
CR33317 (GeneID 8674083),1,1.70e5,1.89e5,1.53e6,2.10e6,inactive

Additional records:
| target | reagent no. | firefly reporter light, replicate 1 | firefly reporter light, replicate 2 | Renilla control light, replicate 1 | Renilla control light, replicate 2 | activity call |
| --- | --- | --- | --- | --- | --- | --- |
| CG32833 (GeneID 37650) | 1 | 1.35e6 | 2.61e5 | 1.90e6 | 5.81e5 | inactive |
| Rpp25 (GeneID 35574) | 1 | 3.49e5 | 2.49e5 | 2.17e6 | 1.67e6 | inactive |
| U2A (GeneID 35713) | 1 | 3.14e5 | 3.06e5 | 1.80e6 | 1.47e6 | inactive |
| U2A (GeneID 35713) | 2 | 5.10e5 | 5.85e5 | 1.48e6 | 1.66e6 | inactive |
| CheB42a (GeneID 2768721) | 1 | 5.76e5 | 8.43e5 | 2.09e6 | 3.15e6 | inactive |
| CG8141 (GeneID 41622) | 1 | 1.51e5 | 1.80e5 | 2.33e6 | 2.29e6 | inactive |
| CG13605 (GeneID 42858) | 1 | 80060 | 70299 | 6.25e5 | 4.02e5 | inactive |
| Tep1 (GeneID 34937) | 1 | 1.21e5 | 1.71e5 | 1.32e6 | 1.53e6 | inactive |
| Tep1 (GeneID 34937) | 2 | 5.72e5 | 5.54e5 | 7.79e5 | 6.87e5 | inactive |
| alphaCOP (GeneID 38199) | 1 | 6.20e5 | 6.38e5 | 1.04e6 | 1.09e6 | inactive |
| gammaSnap2 (GeneID 41239) | 1 | 2.08e5 | 1.79e5 | 2.57e6 | 2.83e6 | inactive |
| CG11294 (GeneID 31807) | 1 | 53674 | 35126 | 1.87e6 | 2.08e6 | inactive |
| CG11294 (GeneID 31807) | 2 | 6.09e5 | 7.31e5 | 1.58e6 | 1.39e6 | inactive |
| Or19b + Or19a | 1 | 6.78e5 | 7.32e5 | 1.14e6 | 1.05e6 | inactive |
| CG7656 (GeneID 39691) | 1 | 9247 | 36833 | 1.51e5 | 95215 | inactive |
| MED31 (GeneID 40577) | 1 | 3.25e5 | 3.65e5 | 6.50e5 | 4.98e5 | inactive |
| Lip1 (GeneID 43973) | 1 | 2.47e5 | 2.40e5 | 1.75e6 | 1.79e6 | inactive |
